No constants are given. Whether binding was seen depends on the method and setting. Some binding calls cover weakened binding; strength is not graded here.
T1: protein having an Fc region and a His-tag added to the N-terminus of SEQ ID NO: 1
T1 sequence: RRMMRTKMRMRRM


These binders were tested against T1, protein having an Fc region and a His-tag added to the N-terminus of SEQ ID NO: 1 (assay: BLItz biolayer interferometry (Table 14)).

binding	Binder
binds	Antibody 23 (bispecific antibody) heavy: QVQLQQSGAELVKPGSSVKISCKASGYTFTRNFIHWIKQQPGNGLEWIGWIFPGDGDTEYNQKFNGKATLTADKSSSTAYMQLSSLTSEDSAVYFCARGNYNYEYFDYWGQGVMVTVSSASTKGPSVFPLAPSSKSTSGGTAALGCLVKDYFPEPVTVSWNSGALTSGVHTFPAVLQSSGLYSLSSVVTVPSSSLGTQTYICNVNHKPSNTKVDKRVEPKSCHHHHHH light: QVQLVQSGGGVVQPGRSLRLSCKASGYTFTRYTMHWVRQAPGKGLEWIGYINPSRGYTNYNQKVKDRFTISRDNSKNTAFLQMDSLRPEDTGVYFCARYYDDHYSLDYWGQGTPVTVSSGGGGSGGGGSGGGGSDIQMTQSPSSLSASVGDRVTITCSASSSVSYMNWYQQTPGKAPKRWIYDTSKLASGVPSRFSGSGSGTDYTFTISSLQPEDIATYYCQQWSSNPFTFGQGTKLQITRGGGGSDIQMTQSPASLSASLGETVSIECLASEDIYSYLAWYQQKPGKSPQLLIFAANRLQDGVPSRFSGSGSGTQFSLKISGMQPEDEGDYFCLQGSKFPYTFGPGTKLELNRTVAAPSVFIFPPSDEQLKSGTASVVCLLNNFYPREAKVQWKVDNALQSGNSQESVTEQDSKDSTYSLSSTLTLSKADYEKHKVYACEVTHQGLSSPVTKSFNRGEC
binds	Antibody 26 (bispecific antibody) heavy: QVQLVQSGGGVVQPGRSLRLSCKASGYTFTRYTMHWVRQAPGKGLEWIGYINPSRGYTNYNQKVKDRFTISRDNSKNTAFLQMDSLRPEDTGVYFCARYYDDHYSLDYWGQGTPVTVSSGGGGSGGGGSGGGGSDIQMTQSPSSLSASVGDRVTITCSASSSVSYMNWYQQTPGKAPKRWIYDTSKLASGVPSRFSGSGSGTDYTFTISSLQPEDIATYYCQQWSSNPFTFGQGTKLQITRGGGGSQVQLQQSGAELVKPGSSVKISCKASGYTFTRNFIHWIKQQPGNGLEWIGWIFPGDGDTEYNQKFNGKATLTADKSSSTAYMQLSSLTSEDSAVYFCARGNYNYEYFDYWGQGVMVTVSSASTKGPSVFPLAPSSKSTSGGTAALGCLVKDYFPEPVTVSWNSGALTSGVHTFPAVLQSSGLYSLSSVVTVPSSSLGTQTYICNVNHKPSNTKVDKRVEPKSCHHHHHH light: QVQLVQSGGGVVQPGRSLRLSCKASGYTFTRYTMHWVRQAPGKGLEWIGYINPSRGYTNYNQKVKDRFTISRDNSKNTAFLQMDSLRPEDTGVYFCARYYDDHYSLDYWGQGTPVTVSSGGGGSGGGGSGGGGSDIQMTQSPSSLSASVGDRVTITCSASSSVSYMNWYQQTPGKAPKRWIYDTSKLASGVPSRFSGSGSGTDYTFTISSLQPEDIATYYCQQWSSNPFTFGQGTKLQITRGGGGSDIQMTQSPASLSASLGETVSIECLASEDIYSYLAWYQQKPGKSPQLLIFAANRLQDGVPSRFSGSGSGTQFSLKISGMQPEDEGDYFCLQGSKFPYTFGPGTKLELNRTVAAPSVFIFPPSDEQLKSGTASVVCLLNNFYPREAKVQWKVDNALQSGNSQESVTEQDSKDSTYSLSSTLTLSKADYEKHKVYACEVTHQGLSSPVTKSFNRGEC
binds	Antibody 16 (bispecific antibody) heavy: QVQLQQSGAELVKPGSSVKISCKASGYTFTRNFIHWIKQQPGNGLEWIGWIFPGDGDTEYNQKFNGKATLTADKSSSTAYMQLSSLTSEDSAVYFCARGNYNYEYFDYWGQGVMVTVSSASTKGPSVFPLAPSSKSTSGGTAALGCLVKDYFPEPVTVSWNSGALTSGVHTFPAVLQSSGLYSLSSVVTVPSSSLGTQTYICNVNHKPSNTKVDKRVEPKSCGGGGSQVQLVQSGGGVVQPGRSLRLSCKASGYTFTRYTMHWVRQAPGKGLEWIGYINPSRGYTNYNQKVKDRFTISRDNSKNTAFLQMDSLRPEDTGVYFCARYYDDHYSLDYWGQGTPVTVSSGGGGSGGGGSGGGGSDIQMTQSPSSLSASVGDRVTITCSASSSVSYMNWYQQTPGKAPKRWIYDTSKLASGVPSRFSGSGSGTDYTFTISSLQPEDIATYYCQQWSSNPFTFGQGTKLQITRHHHHHH light: DIQMTQSPASLSASLGETVSIECLASEDIYSYLAWYQQKPGKSPQLLIFAANRLQDGVPSRFSGSGSGTQFSLKISGMQPEDEGDYFCLQGSKFPYTFGPGTKLELNRTVAAPSVFIFPPSDEQLKSGTASVVCLLNNFYPREAKVQWKVDNALQSGNSQESVTEQDSKDSTYSLSSTLTLSKADYEKHKVYACEVTHQGLSSPVTKSFNRGEC
binds	Antibody 22 (bispecific antibody) heavy: QVQLVQSGGGVVQPGRSLRLSCKASGYTFTRYTMHWVRQAPGKGLEWIGYINPSRGYTNYNQKVKDRFTISRDNSKNTAFLQMDSLRPEDTGVYFCARYYDDHYSLDYWGQGTPVTVSSGGGGSGGGGSGGGGSDIQMTQSPSSLSASVGDRVTITCSASSSVSYMNWYQQTPGKAPKRWIYDTSKLASGVPSRFSGSGSGTDYTFTISSLQPEDIATYYCQQWSSNPFTFGQGTKLQITRGGGGSQVQLQQSGAELVKPGSSVKISCKASGYTFTRNFIHWIKQQPGNGLEWIGWIFPGDGDTEYNQKFNGKATLTADKSSSTAYMQLSSLTSEDSAVYFCARGNYNYEYFDYWGQGVMVTVSSASTKGPSVFPLAPSSKSTSGGTAALGCLVKDYFPEPVTVSWNSGALTSGVHTFPAVLQSSGLYSLSSVVTVPSSSLGTQTYICNVNHKPSNTKVDKRVEPKSCAAAGGGQPREPQVYTLPPSREEMTKNQVSLTCLVKGFYPSDIAVEWESNGQPENNYKTTPPVLDSDGSFFLYSKLTVDKSRWQQGNVFSCSVMHEALHNHYTQKSLSLSPGK light: DIQMTQSPASLSASLGETVSIECLASEDIYSYLAWYQQKPGKSPQLLIFAANRLQDGVPSRFSGSGSGTQFSLKISGMQPEDEGDYFCLQGSKFPYTFGPGTKLELNRTVAAPSVFIFPPSDEQLKSGTASVVCLLNNFYPREAKVQWKVDNALQSGNSQESVTEQDSKDSTYSLSSTLTLSKADYEKHKVYACEVTHQGLSSPVTKSFNRGEC
binds	Antibody 20 (bispecific antibody) heavy: QVQLVQSGGGVVQPGRSLRLSCKASGYTFTRYTMHWVRQAPGKGLEWIGYINPSRGYTNYNQKVKDRFTISRDNSKNTAFLQMDSLRPEDTGVYFCARYYDDHYSLDYWGQGTPVTVSSGGGGSGGGGSGGGGSDIQMTQSPSSLSASVGDRVTITCSASSSVSYMNWYQQTPGKAPKRWIYDTSKLASGVPSRFSGSGSGTDYTFTISSLQPEDIATYYCQQWSSNPFTFGQGTKLQITRGGGGSQVQLQQSGAELVKPGSSVKISCKASGYTFTRNFIHWIKQQPGNGLEWIGWIFPGDGDTEYNQKFNGKATLTADKSSSTAYMQLSSLTSEDSAVYFCARGNYNYEYFDYWGQGVMVTVSSASTKGPSVFPLAPSSKSTSGGTAALGCLVKDYFPEPVTVSWNSGALTSGVHTFPAVLQSSGLYSLSSVVTVPSSSLGTQTYICNVNHKPSNTKVDKRVEPKSCHHHHHH light: DIQMTQSPASLSASLGETVSIECLASEDIYSYLAWYQQKPGKSPQLLIFAANRLQDGVPSRFSGSGSGTQFSLKISGMQPEDEGDYFCLQGSKFPYTFGPGTKLELNRTVAAPSVFIFPPSDEQLKSGTASVVCLLNNFYPREAKVQWKVDNALQSGNSQESVTEQDSKDSTYSLSSTLTLSKADYEKHKVYACEVTHQGLSSPVTKSFNRGEC
binds	Antibody 18 (bispecific antibody) heavy: QVQLQQSGAELVKPGSSVKISCKASGYTFTRNFIHWIKQQPGNGLEWIGWIFPGDGDTEYNQKFNGKATLTADKSSSTAYMQLSSLTSEDSAVYFCARGNYNYEYFDYWGQGVMVTVSSASTKGPSVFPLAPSSKSTSGGTAALGCLVKDYFPEPVTVSWNSGALTSGVHTFPAVLQSSGLYSLSSVVTVPSSSLGTQTYICNVNHKPSNTKVDKRVEPKSCGGGGSQVQLVQSGGGVVQPGRSLRLSCKASGYTFTRYTMHWVRQAPGKGLEWIGYINPSRGYTNYNQKVKDRFTISRDNSKNTAFLQMDSLRPEDTGVYFCARYYDDHYSLDYWGQGTPVTVSSGGGGSGGGGSGGGGSDIQMTQSPSSLSASVGDRVTITCSASSSVSYMNWYQQTPGKAPKRWIYDTSKLASGVPSRFSGSGSGTDYTFTISSLQPEDIATYYCQQWSSNPFTFGQGTKLQITRAAAGGGQPREPQVYTLPPSREEMTKNQVSLTCLVKGFYPSDIAVEWESNGQPENNYKTTPPVLDSDGSFFLYSKLTVDKSRWQQGNVFSCSVMHEALHNHYTQKSLSLSPGK light: DIQMTQSPASLSASLGETVSIECLASEDIYSYLAWYQQKPGKSPQLLIFAANRLQDGVPSRFSGSGSGTQFSLKISGMQPEDEGDYFCLQGSKFPYTFGPGTKLELNRTVAAPSVFIFPPSDEQLKSGTASVVCLLNNFYPREAKVQWKVDNALQSGNSQESVTEQDSKDSTYSLSSTLTLSKADYEKHKVYACEVTHQGLSSPVTKSFNRGEC
binds	Antibody 19 (bispecific antibody) heavy: QVQLQQSGAELVKPGSSVKISCKASGYTFTRNFIHWIKQQPGNGLEWIGWIFPGDGDTEYNQKFNGKATLTADKSSSTAYMQLSSLTSEDSAVYFCARGNYNYEYFDYWGQGVMVTVSSASTKGPSVFPLAPSSKSTSGGTAALGCLVKDYFPEPVTVSWNSGALTSGVHTFPAVLQSSGLYSLSSVVTVPSSSLGTQTYICNVNHKPSNTKVDKRVEPKSCGGGGSQVQLVQSGGGVVQPGRSLRLSCKASGYTFTRYTMHWVRQAPGKGLEWIGYINPSRGYTNYNQKVKDRFTISRDNSKNTAFLQMDSLRPEDTGVYFCARYYDDHYSLDYWGQGTPVTVSSGGGGSGGGGSGGGGSDIQMTQSPSSLSASVGDRVTITCSASSSVSYMNWYQQTPGKAPKRWIYDTSKLASGVPSRFSGSGSGTDYTFTISSLQPEDIATYYCQQWSSNPFTFGQGTKLQITRGGGGSQVQLQQSGAELVKPGSSVKISCKASGYTFTRNFIHWIKQQPGNGLEWIGWIFPGDGDTEYNQKFNGKATLTADKSSSTAYMQLSSLTSEDSAVYFCARGNYNYEYFDYWGQGVMVTVSSASTKGPSVFPLAPSSKSTSGGTAALGCLVKDYFPEPVTVSWNSGALTSGVHTFPAVLQSSGLYSLSSVVTVPSSSLGTQTYICNVNHKPSNTKVDKRVEPKSCHHHHHH light: DIQMTQSPASLSASLGETVSIECLASEDIYSYLAWYQQKPGKSPQLLIFAANRLQDGVPSRFSGSGSGTQFSLKISGMQPEDEGDYFCLQGSKFPYTFGPGTKLELNRTVAAPSVFIFPPSDEQLKSGTASVVCLLNNFYPREAKVQWKVDNALQSGNSQESVTEQDSKDSTYSLSSTLTLSKADYEKHKVYACEVTHQGLSSPVTKSFNRGEC
binds	Antibody 9 (bispecific antibody) QVQLQQSGAELVKPGSSVKISCKASGYTFTRNFIHWIKQQPGNGLEWIGWIFPGDGDTEYNQKFNGKATLTADKSSSTAYMQLSSLTSEDSAVYFCARGNYNYEYFDYWGQGVMVTVSSGGGGSGGGGSGGGGSDIQMTQSPASLSASLGETVSIECLASEDIYSYLAWYQQKPGKSPQLLIFAANRLQDGVPSRFSGSGSGTQFSLKISGMQPEDEGDYFCLQGSKFPYTFGPGTKLELNGGGGSQVQLVQSGGGVVQPGRSLRLSCKASGYTFTRYTMHWVRQAPGKGLEWIGYINPSRGYTNYNQKVKDRFTISRDNSKNTAFLQMDSLRPEDTGVYFCARYYDDHYSLDYWGQGTPVTVSSGGGGSGGGGSGGGGSDIQMTQSPSSLSASVGDRVTITCSASSSVSYMNWYQQTPGKAPKRWIYDTSKLASGVPSRFSGSGSGTDYTFTISSLQPEDIATYYCQQWSSNPFTFGQGTKLQITRHHHHHH
